Reference: PubChem BioAssay AID540276 (National Center for Advancing Translational Sciences (NCATS), 2011)
Several values for one entry are separate records, joined by “and”; a condition that tells them apart may be missing. Equal entries are not always repeated. Hit rate of the full screen: of about 300,000 compounds, about 5,400 (1.8%) were called active. Inconclusive results, whose numbers are uncertain, are shown with a selection of clear calls. The call rests on the fitted dose curve; tested in HEK293 cells. A potency beside an inconclusive call is a rough fit, not a confirmed value.

Experiment: qHTS for inhibitors of binding or entry into cells for Marburg Virus
Conditions: Marburg virus pseudotyped entry inhibition, cell reporter; series mostly up to 37.8 µM
Potency means the concentration at half of the fitted maximal effect.

SMILES | Potency
COc1ccccc1NC(=S)NNC(=O)c1ccncc1 | inconclusive: 35.5 µM [inhibitor, single point]
CCCCOC(=O)c1ccc(N/C(=N\S(=O)(=O)c2ccccc2)c2ccccc2)cc1 | inconclusive: 22.4 µM [inhibitor, single point]
COc1ccc(Cl)cc1C(=O)NCc1nc(-c2cccc(C)c2)no1 | inconclusive: 6.31 µM [inhibitor, single point]
CC(=O)NC(=S)Nc1ccc(NC(=O)COc2ccc(Cl)cc2Cl)cc1 | inconclusive: 29.1 µM [inhibitor, single point]
Cc1nc2c(nnn2Cc2ccccc2)c(=O)[nH]1 | inconclusive: 8.91 µM [activator, partial curve, poor fit]
CC1=C(C(=O)OC2CCCCCC2)C(c2ccc(Cl)cc2)CC(=O)N1 (centres undefined) | inconclusive: 20 µM [inhibitor, single point]
Cc1ccc2[nH]c(C)c(CCN(Cc3cccnc3)C(=S)NC(C)(C)C)c2c1 | inconclusive: 31.6 µM [inhibitor, single point]
O=C(NCCc1ccccc1)C1CCN(c2ncccn2)CC1 | inconclusive: 3.16 µM [inhibitor, partial curve, poor fit]
O=C(c1cnn2c(C(F)(F)F)cc(-c3cccs3)nc12)N1CCN(Cc2ccccc2)CC1 | inconclusive: 17.8 µM [inhibitor, partial curve, poor fit]
Cc1cc2c(cc1Cl)N(C(=O)Nc1ccnc3ccccc13)CC2 | inactive and inconclusive: 2.59 µM [activator, partial curve, poor fit]
CCN(CC)CCN1C(=O)C(=O)/C(=C(/O)c2ccc(S(=O)(=O)N3CCOCC3)cc2)C1c1ccc(Cl)cc1 (centres undefined) | inactive
COc1ccc(N2CC(C(=O)N/N=C/c3ccccc3)CC2=O)cc1 (centres undefined) | inconclusive: 1.78 µM [activator, full curve, poor fit]
CC(C)COC(=O)c1ccc(NC(=O)C2C3CCC(C3)C2C(=O)O)cc1 (centres undefined) | inactive
CCOc1cc(C2C(C(=O)OC)=C(C)NC3=C2C(=O)c2ccccc23)cc(Br)c1OCC (centres undefined) | inconclusive: 4.47 µM [inhibitor, partial curve, poor fit]
COc1ccc(/C=C/C(=O)Nc2cccc(S(=O)(=O)N3CCCC3)c2)cc1OC | inconclusive: 8.91 µM [inhibitor, partial curve, poor fit]
CC(C)NC(=S)N=Nc1c(O)[nH]c2ccc(C(C)C)cc12 | inactive
CC(C)(C)c1ccc(C(=O)Nc2ccc(C(=O)NCc3cccnc3)cc2)cc1 | inconclusive: 35.5 µM [inhibitor, single point]
COc1ccc(Cn2nc(C)n(N(C)c3ncc(C(F)(F)F)cc3Cl)c2=O)cc1 | inactive
CCc1nc(SCC(=O)c2ccc3c(c2)OCCO3)c2ccccc2n1 | inactive
CCCN1Cc2cccc(C(=O)Nc3ccc(C)cc3)c2C1=O | inactive
CN(C)c1cc(NC(=O)CNC(C)(C)CC(C)(C)C)c2ccccc2n1 | inconclusive: 11.2 µM [inhibitor, partial curve, poor fit]
COc1ccccc1CN1CC(C(=O)NC2(c3ccccc3)CC2)CCC1=O (centres undefined) | inconclusive: 35.5 µM [inhibitor, single point]

SMILES | Potency
COc1ccc(-n2nc(C(=O)NCC(=O)Nc3ccccn3)c3ccccc3c2=O)cc1Cl | active: 4.11 µM
CC(C)CNC1=CC(=O)CC(c2ccco2)C1 (centres undefined) | inconclusive: 32.6 µM [inhibitor, single point]
O=C(Nc1ccc(-c2cn3ccsc3n2)cc1)C1CC1 | inactive
Cc1ccc2nc(-c3ccncc3)cc(C(=O)Nc3ccc(F)cc3C)c2c1 | inconclusive: 22.4 µM [inhibitor, partial curve, poor fit]
COc1cc([N+](=O)[O-])ccc1N | inconclusive: 35.5 µM [activator, single point]
COc1ccc(CN2CCN(CCCc3ccccc3)C(CCO)C2)c(O)c1 (centres undefined) | inconclusive: 11.2 µM [inhibitor, partial curve, poor fit]
Cc1ccccc1S(=O)(=O)Cc1ccc(C(=O)N2CCN(c3ccccc3F)CC2)o1 | inconclusive: 22.4 µM [inhibitor, single point]
Cc1ccc(-n2c(C)c(C)c3c(NCCO)ncnc32)cc1 | inconclusive: 3.16 µM [activator, single point]
Cc1cc(CNC(=O)c2cccc([N+](=O)[O-])c2C)c2ccccc2n1 | inconclusive: 7.94 µM [inhibitor, partial curve, poor fit]
CC(=O)C1=C(C)Nc2ncnn2C1c1ccccc1F (centres undefined) | inconclusive: 3.55 µM [inhibitor, single point]
CCOc1ccc(OCCC(=O)OCC(=O)Nc2ccc(Cl)cn2)cc1 | inactive
Cc1[nH]nc(-c2cccnc2)c1N=NN(C)C | active: 7.08 µM
CC1CCN(c2c(NCC3CCC(C(=O)NCc4ccccc4)CC3)c(=O)c2=O)CC1 (centres undefined) | inactive
O=C(/C=C/c1ccc(F)cc1)NNC(=O)CCN1CCN(Cc2ccccc2)CC1 | inconclusive: 10 µM [inhibitor, partial curve, poor fit]
CC1CCCCN1C(=O)CSc1nnc2c(n1)[nH]c1ccccc12 (centres undefined) | inactive
O=C(C=Cc1ccccc1)Nc1cccc(C(=O)NCCCCc2ccccc2)c1 | inconclusive: 35.3 µM [inhibitor, single point]
CCOc1ccc(CCNC(=O)C2=C(C)C(=O)OC23CCCCC3)cc1OCC | inactive
CCn1c(=O)cc(OCC(=O)NCCc2cccc(C)c2)c2ccccc21 | inconclusive: 7.94 µM [inhibitor, partial curve, poor fit]
CCOc1ccccc1CNc1nc2nc(C)c(CC(=O)OC)c(=O)n2[nH]1 | inactive
COc1cccc(CN(C)C(=O)c2cccc(S(=O)(=O)N3CCN(c4ccc(F)cc4)CC3)c2)c1OC | active: 2 µM
NC(=O)c1nn(-c2ccc(Cl)cc2Cl)c(=O)cc1O | inactive
COC(=O)c1nc2ccc(N3CCOCC3)cc2c(C)c1C(=O)OC | inconclusive: 5.01 µM [activator, partial curve, poor fit]

Gathered by group: those above with a Cl atom.
SMILES | Potency
COc1ccc(Cl)cc1C(=O)NCc1nc(-c2cccc(C)c2)no1 | inconclusive: 6.31 µM [inhibitor, single point]
CC(=O)NC(=S)Nc1ccc(NC(=O)COc2ccc(Cl)cc2Cl)cc1 | inconclusive: 29.1 µM [inhibitor, single point]
CC1=C(C(=O)OC2CCCCCC2)C(c2ccc(Cl)cc2)CC(=O)N1 (centres undefined) | inconclusive: 20 µM [inhibitor, single point]
Cc1cc2c(cc1Cl)N(C(=O)Nc1ccnc3ccccc13)CC2 | inactive and inconclusive: 2.59 µM [activator, partial curve, poor fit]
CCN(CC)CCN1C(=O)C(=O)/C(=C(/O)c2ccc(S(=O)(=O)N3CCOCC3)cc2)C1c1ccc(Cl)cc1 (centres undefined) | inactive
COc1ccc(Cn2nc(C)n(N(C)c3ncc(C(F)(F)F)cc3Cl)c2=O)cc1 | inactive
COc1ccc(-n2nc(C(=O)NCC(=O)Nc3ccccn3)c3ccccc3c2=O)cc1Cl | active: 4.11 µM
CCOc1ccc(OCCC(=O)OCC(=O)Nc2ccc(Cl)cn2)cc1 | inactive
NC(=O)c1nn(-c2ccc(Cl)cc2Cl)c(=O)cc1O | inactive
